No constants are given. Whether binding was seen depends on the method and setting. In cells and extracts the contact can be indirect. Some binding calls cover weakened binding; strength is not graded here.
Columns and labels:
[1] = target: Flag-Fbxw7 (F-box and WD repeat domain-containing 7) (UniProt Q969H0); test: co-IP; Flag-Fbxw7 and HA-YAP plasmids transfected into HEK293 cells; 500 ug total protein lysate with 1 ug anti-HA or anti-Flag antibody or IgG, 4°C 2 hours, Protein G Sepharose 1 hour, washed three times; western blot
[2] = target: HA-YAP (Yes-associated protein) (UniProt P46937); test: as above

Amino acid sequences for entries named in this document (tags omitted).
UniProt Q969H0: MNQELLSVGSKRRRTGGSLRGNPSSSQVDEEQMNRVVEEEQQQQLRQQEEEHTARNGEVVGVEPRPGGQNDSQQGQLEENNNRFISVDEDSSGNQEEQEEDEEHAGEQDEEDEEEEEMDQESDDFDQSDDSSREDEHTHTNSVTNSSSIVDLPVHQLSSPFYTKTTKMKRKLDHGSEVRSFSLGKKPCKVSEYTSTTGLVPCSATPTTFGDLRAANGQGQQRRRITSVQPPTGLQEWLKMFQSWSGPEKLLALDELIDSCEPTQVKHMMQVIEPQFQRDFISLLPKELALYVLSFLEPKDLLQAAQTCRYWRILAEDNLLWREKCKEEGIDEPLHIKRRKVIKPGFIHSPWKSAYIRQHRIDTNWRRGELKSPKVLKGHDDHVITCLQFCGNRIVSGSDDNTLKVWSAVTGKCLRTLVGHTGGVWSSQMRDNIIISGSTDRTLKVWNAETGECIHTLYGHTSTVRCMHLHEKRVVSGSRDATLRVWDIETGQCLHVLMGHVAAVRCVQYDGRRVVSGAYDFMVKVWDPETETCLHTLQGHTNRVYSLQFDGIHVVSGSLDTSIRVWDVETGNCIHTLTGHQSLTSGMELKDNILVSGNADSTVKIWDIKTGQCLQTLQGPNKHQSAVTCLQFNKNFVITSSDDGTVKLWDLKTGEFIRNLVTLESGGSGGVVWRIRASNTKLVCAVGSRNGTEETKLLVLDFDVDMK
UniProt P46937: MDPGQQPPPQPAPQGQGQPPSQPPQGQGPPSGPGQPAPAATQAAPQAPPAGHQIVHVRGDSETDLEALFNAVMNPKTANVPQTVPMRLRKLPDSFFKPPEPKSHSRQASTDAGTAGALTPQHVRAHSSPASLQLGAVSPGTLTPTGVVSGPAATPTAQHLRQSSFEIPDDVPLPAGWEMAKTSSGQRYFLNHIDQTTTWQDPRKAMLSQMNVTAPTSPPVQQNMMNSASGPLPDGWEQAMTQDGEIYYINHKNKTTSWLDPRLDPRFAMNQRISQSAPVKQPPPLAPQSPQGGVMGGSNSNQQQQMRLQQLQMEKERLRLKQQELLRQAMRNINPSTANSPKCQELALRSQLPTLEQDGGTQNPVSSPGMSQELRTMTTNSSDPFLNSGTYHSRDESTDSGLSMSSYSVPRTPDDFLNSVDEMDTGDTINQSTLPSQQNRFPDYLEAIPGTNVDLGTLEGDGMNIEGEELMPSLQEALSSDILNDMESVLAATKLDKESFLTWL

In the case of “HA-YAP (Yes-associated protein) (from UniProt P46937 1-504)”, the binding [1] was “binds”.

In the case of “Flag-Fbxw7 (F-box and WD repeat domain-containing 7) (from UniProt Q969H0 1-707)”, the binding [2] was “binds”.

Reference: publication PMC4035898
